Data as given in PubChem BioAssay AID1259308 (NCATS, 2017).
The whole screen tested about 59,000 reagents; shown is a part drawn at random. Of all reagents, about 1,510 (2.6%) are marked active. 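Calls use total luciferase alone and ignore viability, so some active siRNAs may act by altering cell number.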 Unmarked entries are inactive. The numbers tell different reagents against one gene apart. Further read-outs or replicates are left out here.

- Assay: 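Candidate targets for better recombinant protein yield in mammalian cells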 (primary screen)
- Cell system: human HEK293 embryonic kidney cells stably expressing firefly luciferase (HEK-CMV-Luc2-Hygro)
- Reagents: single siRNA against human genes, 0.8 pmol siRNA per well
- Duration: 72 h
- Detection: 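Luciferase light (ONE-Glo) measured on one replicate plate set and viability (CellTiter-Glo) on the other, scaled to a negative control siRNA, with robust z-scores and luciferase per cell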
- Scale: total luciferase, z-score: higher = more reporter protein produced
- Active means: 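An siRNA counts as active if its total luciferase robust z-score exceeds 3; genes with two or more such siRNAs out of three were retested with fresh siRNAs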
- Meaning of the calls: active = raised luciferase; inactive = no rise

For EBF4 #1, how do the results read?
total luciferase, z-score: -0.575

For EBF4 #2, what does the deposit list?
total luciferase, z-score: 0.758

What is on record for EBF4 #3?
total luciferase, z-score: 2.56

For MLF1 #1, how do the results read?
total luciferase, z-score: 0.132

For MLF1 #2, what was measured?
total luciferase, z-score: -0.736

What did the screen give for MLF1 #3?
total luciferase, z-score: 1.23

For AMELY #1, what was measured?
total luciferase, z-score: 0.172

With AMELY #2, how do the results read?
total luciferase, z-score: -0.185

How did the screen score AMELY #3?
total luciferase, z-score: 1.75

With MEX3A #1, what was measured?
total luciferase, z-score: 0.171

For MEX3A #2, what was measured?
total luciferase, z-score: -0.387

What did the screen give for MEX3A #3?
total luciferase, z-score: -0.216

How did the screen score HELB #1?
total luciferase, z-score: 0.215

For HELB #2, what does the deposit list?
total luciferase, z-score: 0.0197

For HELB #3, what does the deposit list?
total luciferase, z-score: 1.42

Which result is listed for PLEKHB1 #1?
total luciferase, z-score: -0.334

For PLEKHB1 #2, what was measured?
total luciferase, z-score: 1.22

For PLEKHB1 #3, what was measured?
total luciferase, z-score: 0.259

What is on record for CD68 #1?
total luciferase, z-score: 2.01

For CD68 #2, how do the results read?
total luciferase, z-score: -1.69

With CD68 #3, what does the deposit list?
total luciferase, z-score: 0.219

For TGFBR3 #1, what does the deposit list?
total luciferase, z-score: -0.415

With TGFBR3 #2, how do the results read?
total luciferase, z-score: -0.0644

Which result is listed for TGFBR3 #3?
total luciferase, z-score: -0.235

How did the screen score RHOBTB2 #1?
total luciferase, z-score: 0.31

Which result is listed for RHOBTB2 #2?
total luciferase, z-score: 0.123

What did the screen give for RHOBTB2 #3?
total luciferase, z-score: 2.87

How did the screen score SLC2A14 #1?
total luciferase, z-score: -2.5

For SLC2A14 #2, what was measured?
total luciferase, z-score: -0.59

With SLC2A14 #3, what was measured?
total luciferase, z-score: -0.381

What is on record for FIBP #1?
total luciferase, z-score: 0.628

Which result is listed for FIBP #2?
total luciferase, z-score: 2.21

For FIBP #3, how do the results read?
total luciferase, z-score: -0.0571

What is on record for SPINK7 #1?
total luciferase, z-score: 0.017

How did the screen score SPINK7 #2?
total luciferase, z-score: -0.262

For SPINK7 #3, what was measured?
total luciferase, z-score: -0.87

What did the screen give for TRPC6 #1?
total luciferase, z-score: -0.582

Which result is listed for TRPC6 #2?
total luciferase, z-score: 0.644

How did the screen score TRPC6 #3?
total luciferase, z-score: 0.744

Which result is listed for CLCNKA #1?
total luciferase, z-score: -0.117

What is on record for CLCNKA #2?
total luciferase, z-score: 0.511

For CLCNKA #3, what was measured?
total luciferase, z-score: 1.69

4 successive records from above:
RHOBTB2 #3 — total luciferase, z-score = 2.87
SLC2A14 #1 — total luciferase, z-score = -2.5
SLC2A14 #2 — total luciferase, z-score = -0.59
SLC2A14 #3 — total luciferase, z-score = -0.381
